# Results reported in the supplement of paper PMC8728848.
# The other results are listed elsewhere or left out.
# B1: Epa19 (Candida glabrata) (protein)
# chain: MGSSHHHHHHSSGLVPRGSHMASSKDPTRFPIGCSPQVLKTQPGLAVKLYSYGHPVPGCSYITYQYPDFPRSGYKKERKLADITGVNGKIDIDLKPNDPCRVLTGHLPSNYNYPDTLTYTNFTMILYGYFQPKVTGYHTFNLEADDLLFMNLGAGNAFDCCKAESTLDNFGNYQSYSLWGSDYAKANITVFLVSGVYYPIRLFYVNRDNNAVIDFSFTTEFDKEKVHDFTSYFFSASDGEQCPGSV
# Assays:
# Experiment in all cases: glycan array binding signal (z-score within array); higher = stronger binding
# Conditions in all cases: glycan notation: IUPAC condensed, linker removed
# [1] = target: Neu5Ac(a2-6)GlcNAc(b1-4)GlcNAc
# Procedure, shortened: (§1)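 Arrays were curated from the Consortium for Functional Glycomics database, 3228 in total, and kept only where the protein sequence was available. Binding is expressed as a within-array Z-score. This score was averaged across arrays of the same protein sequence at different concentrations or buffers and across linkers, and negative values can be read as non-binding.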
# [2] = target: Neu5Ac(a2-6)GlcNAc(b1-4)GlcNAc(b1-4)GlcNAc
# Procedure, shortened: as §1
# Neu5Ac(a2-8)Neu5Ac = target: Neu5Ac(a2-8)Neu5Ac
# Procedure, shortened: as §1
# [3] = target: Neu5Ac(a2-8)Neu5Ac(a2-3)Gal(b1-3)GalNAc(b1-4)[Neu5Ac(a2-3)]Gal(b1-4)Glc
# Procedure, shortened: as §1
# [4] = target: Neu5Ac(a2-8)Neu5Ac(a2-3)Gal(b1-3)GalNAc(b1-4)[Neu5Ac(a2-8)Neu5Ac(a2-3)]Gal(b1-4)Glc
# Procedure, shortened: as §1
# [5] = target: Neu5Ac(a2-8)Neu5Ac(a2-3)Gal(b1-4)Glc
# Procedure, shortened: as §1
# [6] = target: Neu5Ac(a2-8)Neu5Ac(a2-3)Gal(b1-4)GlcNAc
# Procedure, shortened: as §1
# [7] = target: Neu5Ac(a2-8)Neu5Ac(a2-3)[Gal(b1-3)GalNAc(b1-4)]Gal(b1-4)Glc
# Procedure, shortened: as §1
# [8] = target: Neu5Ac(a2-8)Neu5Ac(a2-3)[GalNAc(b1-4)]Gal(b1-4)Glc
# Procedure, shortened: as §1
# [9] = target: Neu5Ac(a2-8)Neu5Ac(a2-8)Neu5Ac
# Procedure, shortened: as §1
# [10] = target: Neu5Ac(a2-8)Neu5Ac(a2-8)Neu5Ac(a2-3)Gal(b1-4)Glc
# Procedure, shortened: as §1
# [11] = target: Neu5Ac(a2-8)Neu5Ac(a2-8)Neu5Ac(a2-3)[Gal(b1-3)GalNAc(b1-4)]Gal(b1-4)Glc
# Procedure, shortened: as §1
# [12] = target: Neu5Ac(a2-8)Neu5Ac(a2-8)Neu5Ac(a2-3)[GalNAc(b1-4)]Gal(b1-4)Glc
# Procedure, shortened: as §1
# [13] = target: Neu5Ac(a2-8)Neu5Ac(a2-8)Neu5Ac(a2-8)Neu5Ac(a2-3)[GalNAc(b1-4)]Gal(b1-4)Glc
# Procedure, shortened: as §1
# [14] = target: Neu5Ac(a2-8)Neu5Gc(a2-3)Gal(b1-4)GlcNAc
# Procedure, shortened: as §1
# [15] = target: Neu5Ac(b2-6)Gal(b1-4)GlcNAc
# Procedure, shortened: as §1
# Neu5Ac(b2-6)GalNAc = target: Neu5Ac(b2-6)GalNAc
# Procedure, shortened: as §1
# [16] = target: Neu5Ac9Ac(a2-3)Gal(b1-3)GlcNAc
# Procedure, shortened: as §1
# [17] = target: Neu5Ac9Ac(a2-3)Gal(b1-4)GlcNAc
# Procedure, shortened: as §1
# [18] = target: Neu5Ac9Ac(a2-6)Gal(b1-4)GlcNAc
# Procedure, shortened: as §1
# [19] = target: Neu5Gc(a2-3)Gal(b1-3)GlcNAc
# Procedure, shortened: as §1
# [20] = target: Neu5Gc(a2-3)Gal(b1-3)[Fuc(a1-4)]GlcNAc
# Procedure, shortened: as §1
# Neu5Gc(a2-3)Gal(b1-4)Glc = target: Neu5Gc(a2-3)Gal(b1-4)Glc
# Procedure, shortened: as §1
# [21] = target: Neu5Gc(a2-3)Gal(b1-4)GlcNAc
# Procedure, shortened: as §1
# [22] = target: Neu5Gc(a2-3)Gal(b1-4)GlcNAc(b1-3)Gal(b1-4)GlcNAc(b1-2)Man(a1-3)[Neu5Gc(a2-3)Gal(b1-4)GlcNAc(b1-3)Gal(b1-4)GlcNAc(b1-2)Man(a1-6)]Man(b1-4)GlcNAc(b1-4)GlcNAc
# Procedure, shortened: as §1
# [23] = target: Neu5Gc(a2-3)Gal(b1-4)[Fuc(a1-3)]GlcNAc
# Procedure, shortened: as §1
# [24] = target: Neu5Gc(a2-6)Gal(b1-4)GlcNAc
# Procedure, shortened: as §1
# Neu5Gc(a2-6)GalNAc = target: Neu5Gc(a2-6)GalNAc
# Procedure, shortened: as §1
# [25] = target: Neu5Gc(a2-8)Neu5Ac(a2-3)Gal(b1-4)GlcNAc
# Procedure, shortened: as §1
# [26] = target: Neu5Gc(a2-8)Neu5Gc(a2-3)Gal(b1-4)GlcNAc
# Procedure, shortened: as §1
# [27] = target: Neu5Gc(a2-8)Neu5Gc(a2-3)Gal(b1-4)GlcNAc(b1-3)Gal(b1-4)GlcNAc
# Procedure, shortened: as §1
# [28] = target: Neu5Gc(a2-8)Neu5Gc(a2-6)Gal(b1-4)GlcNAc
# Procedure, shortened: as §1
# [29] = target: Neu5Gc(b2-6)Gal(b1-4)GlcNAc
# Procedure, shortened: as §1
binder,measurement,setting,value
B1,glycan array binding signal (z-score),[1],1.44
same,glycan array binding signal (z-score),[2],-0.588
same,glycan array binding signal (z-score),Neu5Ac(a2-8)Neu5Ac,-0.577
same,glycan array binding signal (z-score),[3],-0.103
same,glycan array binding signal (z-score),[4],0.259
same,glycan array binding signal (z-score),[5],-0.214
same,glycan array binding signal (z-score),[6],-0.858
same,glycan array binding signal (z-score),[7],0.074
same,glycan array binding signal (z-score),[8],1.57
same,glycan array binding signal (z-score),[9],0.189
same,glycan array binding signal (z-score),[10],-0.125
same,glycan array binding signal (z-score),[11],2.06
same,glycan array binding signal (z-score),[12],0.647
same,glycan array binding signal (z-score),[13],-0.059
same,glycan array binding signal (z-score),[14],-1.05
same,glycan array binding signal (z-score),[15],1.13
same,glycan array binding signal (z-score),Neu5Ac(b2-6)GalNAc,-0.238
same,glycan array binding signal (z-score),[16],-0.414
same,glycan array binding signal (z-score),[17],-0.384
same,glycan array binding signal (z-score),[18],-0.265
same,glycan array binding signal (z-score),[19],-0.05
same,glycan array binding signal (z-score),[20],-0.114
same,glycan array binding signal (z-score),Neu5Gc(a2-3)Gal(b1-4)Glc,0.353
same,glycan array binding signal (z-score),[21],-0.325
same,glycan array binding signal (z-score),[22],-0.264
same,glycan array binding signal (z-score),[23],-0.125
same,glycan array binding signal (z-score),[24],-0.062
same,glycan array binding signal (z-score),Neu5Gc(a2-6)GalNAc,-0.123
same,glycan array binding signal (z-score),[25],-0.467
same,glycan array binding signal (z-score),[26],-0.386
same,glycan array binding signal (z-score),[27],-1.06
same,glycan array binding signal (z-score),[28],-0.259
same,glycan array binding signal (z-score),[29],-0.317

# Retrieved one by one from the list above (2):
binder,measurement,setting,value
B1,glycan array binding signal (z-score),[14],-1.05
same,glycan array binding signal (z-score),[3],-0.103
